Values of other authors, collected in patent US6979463B2, “Stable extended release oral dosage composition” (Schering Corporation, priority 1999, dated 2005).

What was measured:
cells of human origin = conditions: in vitro, mainly cells of human origin; independent of the H1-antagonist effect
[1] = tested on: seasonal allergic rhinitis patients; conditions: adult and adolescent patients; 4 double-blind, randomized clinical trials

In the case of `Clc1ccc2c(c1)CCc1cccnc1C2=C1CCNCC1` [desloratadine], the “inhibition of events in the cascade of allergic inflammation” value (cells of human origin) is given as “can inhibit many events in the cascade of allergic inflammation” and the “clinical efficacy in seasonal rhinitis” value [1] is given as “demonstrated the efficacy”.
